For some of these results: No signal at the amounts used counts as a negative. For at least one entry, the source does not settle the construct or the ends of the probe. Weaker means in comparison with the reference protein, sequence or condition of that experiment. For some of these results: At least one verdict was read from the data and is not stated in words by the source.
What was measured:
[1] = molecular target: DDX3X core WT (Homo sapiens) (UniProt O00571); test: EMSA; conditions: tight binding not observed, protein variant not stated in given legend, EMSA: 20 mM HEPES-NaOH pH 7.4, 100 mM NaCl, 5 mM DTT, 10% glycerol, 5 mM ATP/MgCl2 or ADP/EDTA, 100 nM RNA, recombinant protein, residues 132-607, protein details: His6-SUMO removed (Ulp1), two-Gly linker, label: 3'-FAM
[2] = molecular target: DDX3X core WT (Homo sapiens) (UniProt O00571); test: NMR (13C-1H HMQC); conditions: ADP, NMR: 35 C (30 C for UA-12mer), 40-50 uM protein (HMQC) or 100 uM RNA (19F), 5 mM ATP/MgCl2, recombinant protein, residues 132-607, protein details: His6-SUMO removed (Ulp1), two-Gly linker

The chains behind the UniProt entries cited, without tags or fusion partners. Residues count along the entry.
UniProt O00571, 132-607: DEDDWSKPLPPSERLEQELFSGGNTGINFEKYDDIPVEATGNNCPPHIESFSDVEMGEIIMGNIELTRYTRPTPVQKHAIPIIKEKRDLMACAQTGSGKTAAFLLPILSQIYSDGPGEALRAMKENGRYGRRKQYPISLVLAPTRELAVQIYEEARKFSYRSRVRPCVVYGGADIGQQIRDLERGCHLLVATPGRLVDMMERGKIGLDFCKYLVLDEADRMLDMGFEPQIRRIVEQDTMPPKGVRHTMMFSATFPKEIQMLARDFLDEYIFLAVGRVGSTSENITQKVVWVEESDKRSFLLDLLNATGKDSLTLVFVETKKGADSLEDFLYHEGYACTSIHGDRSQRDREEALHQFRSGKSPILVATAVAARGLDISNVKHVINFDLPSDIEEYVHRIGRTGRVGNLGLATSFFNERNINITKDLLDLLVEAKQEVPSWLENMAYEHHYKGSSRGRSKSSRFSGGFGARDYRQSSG

GGGCGGGCCCGCCC (double strand) [GC-14mer-FAM]
binding result ([1]; ADP/EDTA): binds more weakly | binding result ([1]; apo (no nucleotide)): binds more weakly

GGGCGGGCCCGCCC (double strand) [GC-14mer]
binding result ([2]; tight binding not observed): binds more weakly

UUUUUUUUUU [poly-U10]
binding result ([2]; no spectral changes): no binding
